Among the data in patent publication US20110263825A1 (OSAKA UNIVERSITY, published 2011) are binding values, retold here.

No constants are given. Whether binding was seen depends on the method and setting. Some binding calls cover weakened binding; strength is not graded here.

The target of this assay is T1, human CD20 antigen (human, UniProt P11836 1-297).
T1 construct: whole, on cells; also called human CD20 molecule
T1 sequence (looked up): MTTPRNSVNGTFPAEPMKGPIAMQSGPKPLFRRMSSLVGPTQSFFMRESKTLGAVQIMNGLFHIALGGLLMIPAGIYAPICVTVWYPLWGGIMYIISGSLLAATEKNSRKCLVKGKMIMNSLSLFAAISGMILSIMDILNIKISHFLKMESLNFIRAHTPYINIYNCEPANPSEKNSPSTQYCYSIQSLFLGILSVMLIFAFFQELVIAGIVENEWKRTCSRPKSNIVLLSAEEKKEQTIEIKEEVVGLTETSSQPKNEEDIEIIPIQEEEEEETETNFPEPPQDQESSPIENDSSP
Briefly: affinity on Raji cells, comparison in words.

B1: 1K0924 mouse anti-CD20 monoclonal antibody (antibody, mouse IgG2b, V domains shown)
VH: QVQLQQPGAELVKPGASVKMSCKASGYTFTSYNIHWVKQTPGQGLEWIGAIYPGNGDTSYNQKFKGKATLTSDKSSSTAYMQLSSLTSEDSAVYYCARMSTMITGFDYWGQGTTLTVSS
VL: QIVLSQSPAILSASPGEKVTMTCRASSSVSYMHWYQQRPGSSPKPWIYATSNLASGVPARFSGSGSGTSYYFTISRVEAEDAATYYCQQWNSNPPTHGGGTKLEIK
Regarding B1, the binding result was “binds”.
